# Assay results published in the supplement of paper PMC3334620.
# In all, about 33,000 sequences were measured (“E-score (-0.5 to 0.5)”: median about -0.0014, highest 2% from about 0.25 on). The list shows a part of the results.
# Molecular target: T1, Cad1 (UniProt P24813)
# T1 sequence: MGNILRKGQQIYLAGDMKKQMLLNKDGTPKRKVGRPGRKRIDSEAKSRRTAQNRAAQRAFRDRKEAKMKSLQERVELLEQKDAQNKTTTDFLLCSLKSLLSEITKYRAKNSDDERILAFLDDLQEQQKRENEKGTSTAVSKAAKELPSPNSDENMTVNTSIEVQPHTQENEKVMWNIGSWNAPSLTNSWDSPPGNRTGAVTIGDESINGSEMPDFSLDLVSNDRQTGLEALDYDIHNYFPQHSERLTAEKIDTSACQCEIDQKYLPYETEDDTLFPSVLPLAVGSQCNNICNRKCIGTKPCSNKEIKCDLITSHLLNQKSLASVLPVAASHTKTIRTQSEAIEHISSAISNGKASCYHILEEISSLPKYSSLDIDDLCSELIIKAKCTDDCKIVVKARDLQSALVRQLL
# Experiment: PBM E-score (8-mer binding enrichment) (E-score (-0.5 to 0.5)); higher = stronger / more preferred TF binding
# Details: protein concentration: 100 nM; construct: GST-full length
# Experimental: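 Universal 'all 10-mer' protein binding microarrays (Agilent AMADID 015681) probed with GST-tagged S. cerevisiae TFs (full-length or DBD) made by in vitro transcription/translation (PURExpress), about 100-200 nM. Bound TF was detected with fluorescent anti-GST. Each ungapped 8-mer (which stands for itself and its reverse complement) is scored by the PBM enrichment score (E-score), a modified Wilcoxon-Mann-Whitney statistic from -0.5 to +0.5, computed with the Universal PBM Analysis Suite. Scale: above 0.35 generally sequence-specific binding.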
row,Sequence,PBM E-score
1,CTAGCCGA,-0.0822
2,AGGTTCAA,0.0308
3,ATAGTAGG,0.081
4,CTTCACAC,-0.0388
5,GTTGAAAC,0.0575
6,TGGCACAA,-0.118
7,ATAACTGA,0.19
8,GGGCGGAC,-0.12
9,TACCTAAA,0.154
10,CTGTGCGC,0.0788
11,CCATTAAC,0.131
12,AGACTCTC,-0.0591
13,GAGTAATA,0.198
14,ACATTACT,0.139
15,AAGAAGCC,0.182
16,CGAGATTA,0.198
17,TCGTGGAA,0.123
18,CCAAGAGA,0.0142
19,AGATGCGA,-0.0722
20,CTCCGGGA,-0.102
21,CATCTGCG,0.0102
22,CCCTCTCC,-0.36
23,ATATGTGA,0.121
24,CCGACAAG,-0.0166
25,CCAGTGGA,-0.184

row,Sequence,PBM E-score
1,AGTTGAAA,-0.0414
2,CGTTTTGA,0.0158
3,AGAAATTG,0.105
4,ACGAGCAC,0.0382
5,ACCTTCAA,0.0663
6,CCATCTCA,0.0619
7,CAAGTCGC,-0.192
8,AATTTTAG,0.149
9,AGTGCGGC,0.0577
10,ATACGCTC,-0.0019
11,CTACTCTC,-0.202
12,CCATCGCA,-0.109
13,GGCCTATA,-0.32
14,CCTTTCGC,-0.163
15,CGTTGGTC,-0.0447
16,CGCCCGCG,-0.0942
17,CGGGTACA,-0.135
18,CACCGTAG,-0.218
19,ACTCCTAT,-0.102
20,AAGACCCA,-0.24
21,AGTGGGAT,-0.0954
22,CCTTCCCA,0.0189
23,CCAGAAGC,-0.248
24,TAATCTAA,0.0157
25,GATACGGC,0.014

row,Sequence,PBM E-score
1,CTAATACA,0.166
2,AAATAACA,0.0616
3,GCACACGC,-0.0434
4,CCATCAAA,0.155
5,CAGATCAA,-0.0742
6,GCCAAGCA,-0.00197
7,ATAGCCCC,-0.373
8,ACGTCAGA,0.0312
9,CGGTGAAG,-0.114
10,AAGCCTTC,-0.251
11,CTGGACTC,-0.0752
12,GTATCATA,0.288
13,ATAGCATG,-0.181
14,GGATAAAA,0.164
15,AGACACAC,0.0545
16,CACGACAC,0.0261
17,CCACAAGA,-0.0947
18,CCGGCGGC,-0.13
19,AGGTGCGC,-0.00349
20,CGAACCCC,-0.191
21,ATGTTGTC,0.143
22,GCGACAAC,0.0879
23,AAGTAACC,0.057
24,GAATTCTA,0.191
25,GTACTCCA,-0.162

row,Sequence,PBM E-score
1,GAAGTTCC,-0.0702
2,CCAACGAA,0.135
3,CTGAACCC,-0.106
4,ATCGTATG,0.0145
5,CTATAAAA,0.0651
6,TAGACCGA,-0.0576
7,CCTCATTC,-0.0493
8,GCCTAATA,-0.00031
9,ATGCGTCA,0.115
10,TCCAGCGA,0.0183
11,AACAACTA,-0.0131
12,CACGGGCC,-0.223
13,GCTAGCCA,-0.183
14,CACGACTA,-0.148
15,CTCTATGC,-0.0435
16,GTTACCGA,-0.0191
17,TAGAACAA,0.0732
18,CGAGGAGC,-0.163
19,GCAACTAC,0.0469
20,CACAAACG,0.0911
21,CCGTGGAC,-0.189
22,CGGATTAA,0.133
23,CGCGTATA,-0.0201
24,GTCCGAAC,0.0452
25,AGGGGCAC,-0.146

row,Sequence,PBM E-score
1,CACTAGAA,-0.0573
2,CGAATTTC,0.17
3,CACCTCCG,-0.0133
4,ATCTAGCG,0.067
5,CCTTTGGC,-0.197
6,AGTGGACA,0.172
7,CGGGATAA,0.119
8,AGTTCAGG,-0.0196
9,CCACCGTA,0.0243
10,GAAGGCTC,-0.171
11,CTGACGCA,0.0845
12,AGGCTCTC,-0.153
13,CCCTAGTC,-0.219
14,AACTTATA,0.257
15,ATCAGCGG,0.0735
16,CAGCACGG,0.147
17,ACGAGTAG,-0.0551
18,CACATGAA,0.00698
19,ATAAGAAC,0.205
20,CTAAGAAC,0.076
21,TCTTCGAA,-0.00633
22,ATACCAAT,0.0289
23,AATTTGCC,0.103
24,CTTCGACC,-0.0865
25,TATTCTCA,0.121

row,Sequence,PBM E-score
1,AAATACGG,0.105
2,GATTAGCC,0.135
3,CAATGCCG,0.0717
4,ACCATTAA,0.225
5,ATTCCTTA,0.0773
6,AACCCAGA,-0.0567
7,AACTAATG,0.283
8,CCTGAGCG,0.053
9,TACGTCAA,-0.0712
10,CAGTACTC,-0.139
11,CACACATA,-0.0274
12,AACGGTGT,0.0593
13,GCAGTGAA,0.233
14,CTGTGCAA,0.0576
15,CCGTGACC,-0.128
16,GAACCCTC,-0.185
17,GGTTCCGA,-0.00577
18,CATAGTAC,-0.0936
19,GTACCCAC,0.00331
20,CTTGTAGA,-0.19
21,CGAACTAG,0.0316
22,CGTCTATC,0.0782
23,CAGTTTCA,-0.222
24,GTTTGCTA,0.0823
25,CCACTATC,-0.0188

row,Sequence,PBM E-score
1,GTAACATA,0.0159
2,CTTCCGCC,-0.18
3,ATCATTGA,0.0624
4,ATGAGAGC,0.0615
5,GTATGACA,0.0705
6,AGGCACGC,-0.0443
7,TTAACGAA,0.145
8,GAACTTAA,0.116
9,AGAACGTG,0.113
10,AATAACAT,0.194
11,CTTATTGC,-0.105
12,AAGTATGT,-0.076
13,CAGGCGCA,0.00914
14,AACTTCGA,0.0752
15,CTCAGATA,0.197
16,AATTTACT,0.0407
17,TAGGGTCA,-0.11
18,ACATCGAC,-0.012
19,AGCAGTGC,-0.0322
20,TAGGCGGA,0.112
21,TTGCGCAA,0.258
22,CAACCTTG,-0.0169

# Six successive records from above, for reference:
row,Sequence,PBM E-score
9,AGAACGTG,0.113
10,AATAACAT,0.194
11,CTTATTGC,-0.105
12,AAGTATGT,-0.076
13,CAGGCGCA,0.00914
14,AACTTCGA,0.0752

# As entered above.
# Value of GCTAGCCA under PBM E-score: -0.183
# Value of AGGTTCAA under PBM E-score: 0.0308
# Value of ATCATTGA under PBM E-score: 0.0624
